This series can be described thus: general procedure: Fmoc solid-phase peptide synthesis; 2-chlorotrityl resin; HBTU/NMM in DMF (Tribute); HBTU/DIPEA in NMP (Symphony); DIC/HOBt or DIC/Oxyma P. Conditions: whole synthesis.

Substance “Glac-Arg-Val-Tyr-Chg-His-Pro-(D-Phe(2-Cl))—OH” showed an isolated yield (based on 83.5% peptide content, scale 1 mmol) of 32%. In addition, the isolated mass (scale 1 mmol) stood at 384 mg.
As to “Glac-Arg-Val-Tyr-Chg-His-Pro-(D-Phe(2-Me))—OH”, the isolated yield (based on 75.7% peptide content, scale 1 mmol) was found to be 38%. For the same substance, under “scale 1 mmol”, the isolated mass is on record as 601.2 mg.
Where the note is “based on 78.7% peptide content, scale 0.25 mmol”, “Glac-Arg-Val-Tyr-Cpg-His-Pro-(D-Phe(2-Cl))—OH” yielded an isolated yield of 17%. Further, the isolated mass (scale 0.25 mmol) turned out to be 66.6 mg.
“Glac-Arg-Val-Tyr-Val-His-Pro-(D-Phe(2-Cl))—OH” had an isolated yield (based on 80% peptide content, scale 3 mmol) of 46%. In addition, the isolated mass (scale 3 mmol) turned out to be 2013.5 mg.
As to Sar-Arg-Val-Tyr-Val-His-Pro-(D-1Nal)-OH, the isolated yield (based on 74.3% peptide content) worked out at 29%.
As to “Sar-Arg-Val-Tyr-Val-His-Pro-(D-Phe(2-Cl))—OH”, where the note is “based on 75% peptide content, scale 5 mmol”, the isolated yield is 45%. Besides, under “scale 5 mmol”, the crude mass is 5.01 g and the isolated mass is recorded as 3039 mg.
For “Sar-Arg-Val-Tyr-Val-His-Pro-(D-Phe(2-Me))—OH”, the isolated yield (based on 82.5% peptide content, scale 42 mmol, acetate salt) was found to be 57.9%. The substance also registered a crude mass (scale 42 mmol) of 43.9 g. Further, the isolated mass (scale 42 mmol, acetate salt) is 29532 mg.

The values above are taken from patent publication US10344054B2 (Ferring B.V., priority 2016, dated 2019).
